Reference: article PMC5568730
Results are given in words; binding and its absence hold for the method and conditions named. Binding seen in cells or lysates may run through a third protein. Binding calls can cover weak binding; strength is not graded here.

Target: OsOFP8-YFP (rice)
Assay: co-IP; Arabidopsis protoplasts expressing OsOFP8-YFP and 3HA-OsGSK2 (control: YFP and 3HA-OsGSK2); input and IP blotted with GFP and HA antibodies; the IP antibody is not told in the legend

- binding: binds
B1: 3HA-OsGSK2 (enzyme, UniProt Q60EZ2 1-402)
chain: MDQPAPAPEPMLLDAQPPAAVACDKKQQEGEAPYAEGNDAVTGHIISTTIGGKNGEPKRTISYMAERVVGTGSFGIVFQAKCLETGETVAIKKVLQDRRYKNRELQLMRAMDHPNVISLKHCFFSTTSRDELFLNLVMEYVPETLYRVLKHYSNANHRMPLIYVKLYMYQLFRGLAYIHTVPGVCHRDVKPQNVLVDPLTHQVKLCDFGSAKTLVPGEPNISYICSRYYRAPELIFGATEYTTSIDIWSAGCVLAELLLGQPLFPGESAVDQLVEIIKVLGTPTREEIRCMNPNYTEFRFPQIKAHPWHKVFHKRMPPEAIDLASRLLQYSPSLRCTALDACAHPFFDELREPNARLPNGRPFPPLFNFKHELANSSQELISRLIPEHVRRQATHNFFNTGS
